Source: patent publication US20090137424A1
No constants are given. Whether binding was seen depends on the method and setting. Some binding calls cover weakened binding; strength is not graded here. Sequences can lack the tags named with a protein.

Target: streptavidin (streptavidin coated microtiter plates, Pierce) (UniProt P22629)
Assay: phage ELISA, streptavidin coated plates, anti-M13 HRP detection, OD492

AGQTLLAHPQ (peptide, not shown: large carriers)
binding: binds
